PubChem BioAssay AID504804 | Drosophila RNAi Screening Center | 2011
Purpose: 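Knock-downs shielding fly cells from apoptosis caused by DNA damage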 (primary screen). System: Drosophila Kc cells. Reagent: long dsRNA against Drosophila genes, 0.5 µg dsRNA per well. Time to read-out: 96 h (48 h knock-down, then 48 h drug). Challenge: doxorubicin 5 µg/ml for 48 h, added 48 h after dsRNA. Read-out: 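Viability measured as cellular ATP by luminescence after 48 h knock-down then 48 h doxorubicin at 5 µg/ml; unnormalised plate counts for each replicate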. Scale: raw ATP luminescence: higher = more viable cells, protection from doxorubicin. Active means: 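Active when both duplicate wells lie at least 2 SD above the plate mean and protection is confirmed by rescreening and independent dsRNAs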.
The screen tested about 19,000 reagents; this is an unselected part of those with a known target gene and a result. Of all reagents, 47 (0.25%) are marked active. 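Signals are raw, not normalised; exact z-scores behind calls not deposited; actives needed confirmation, so some wells reaching 2 SD are inactive.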

CG17207 (GeneID 2768665) [DRSC15198] — raw ATP luminescence, replicate 1: 69587; raw ATP luminescence, replicate 2: 64583; outcome: inactive
CG14456 (GeneID 40481) [DRSC11713] — raw ATP luminescence, replicate 1: 54647; raw ATP luminescence, replicate 2: 51667; outcome: inactive
Arc42 (GeneID 42364) [DRSC14340] — raw ATP luminescence, replicate 1: 54990; raw ATP luminescence, replicate 2: 59650; outcome: inactive
Arc42 (GeneID 42364) [DRSC15627] — raw ATP luminescence, replicate 1: 84360; raw ATP luminescence, replicate 2: 99830; outcome: inactive
phr (GeneID 35735) [DRSC07662] — raw ATP luminescence, replicate 1: 44783; raw ATP luminescence, replicate 2: 98800; outcome: inactive
gdrd (GeneID 39599) [DRSC10020] — raw ATP luminescence, replicate 1: 52410; raw ATP luminescence, replicate 2: 41330; outcome: inactive
CG16743 (GeneID 34517) [DRSC02514] — raw ATP luminescence, replicate 1: 35770; raw ATP luminescence, replicate 2: 64550; outcome: inactive
CG42500 (GeneID 50032) [DRSC14822] — raw ATP luminescence, replicate 1: 1.25e5; raw ATP luminescence, replicate 2: 63950; outcome: inactive
Brf (GeneID 42087) [DRSC13228] — raw ATP luminescence, replicate 1: 2.67e5; raw ATP luminescence, replicate 2: 3.08e5; outcome: inactive
Brf (GeneID 42087) [DRSC14166] — raw ATP luminescence, replicate 1: 71920; raw ATP luminescence, replicate 2: 92430; outcome: inactive
Brf (GeneID 42087) [DRSC14167] — raw ATP luminescence, replicate 1: 71540; raw ATP luminescence, replicate 2: 68560; outcome: inactive
CG3419 (retired record) (GeneID 37896) [DRSC04368] — raw ATP luminescence, replicate 1: 44797; raw ATP luminescence, replicate 2: 50633; outcome: inactive
CG3419 (retired record) (GeneID 37896) [DRSC04369] — raw ATP luminescence, replicate 1: 49303; raw ATP luminescence, replicate 2: 48160; outcome: inactive
CG8136 (GeneID 41037) [DRSC16385] — raw ATP luminescence, replicate 1: 54437; raw ATP luminescence, replicate 2: 56757; outcome: inactive

A stretch from the list above:
Brf (GeneID 42087) [DRSC14166] — raw ATP luminescence, replicate 1: 71920; raw ATP luminescence, replicate 2: 92430; outcome: inactive
Brf (GeneID 42087) [DRSC14167] — raw ATP luminescence, replicate 1: 71540; raw ATP luminescence, replicate 2: 68560; outcome: inactive
CG3419 (retired record) (GeneID 37896) [DRSC04368] — raw ATP luminescence, replicate 1: 44797; raw ATP luminescence, replicate 2: 50633; outcome: inactive
CG3419 (retired record) (GeneID 37896) [DRSC04369] — raw ATP luminescence, replicate 1: 49303; raw ATP luminescence, replicate 2: 48160; outcome: inactive

Next reagents follow:
SRPK (GeneID 36706) [DRSC07090] — raw ATP luminescence, replicate 1: 70880; raw ATP luminescence, replicate 2: 42570; outcome: inactive
CG17193 (GeneID 50044) [DRSC15187] — raw ATP luminescence, replicate 1: 43680; raw ATP luminescence, replicate 2: 23660; outcome: inactive
CG32027 (retired record) (GeneID 317830) [DRSC09571] — raw ATP luminescence, replicate 1: 81777; raw ATP luminescence, replicate 2: 78773; outcome: inactive
RpL34b (GeneID 41120) [DRSC16475] — raw ATP luminescence, replicate 1: 50203; raw ATP luminescence, replicate 2: 41507; outcome: inactive
CG32687 (GeneID 31980) [DRSC18210] — raw ATP luminescence, replicate 1: 3.79e5; raw ATP luminescence, replicate 2: 3.37e5; outcome: inactive
CG32687 (GeneID 31980) [DRSC18237] — raw ATP luminescence, replicate 1: 3.13e5; raw ATP luminescence, replicate 2: 2.97e5; outcome: inactive
Pdf (GeneID 43193) [DRSC16786] — raw ATP luminescence, replicate 1: 1.82e5; raw ATP luminescence, replicate 2: 2.14e5; outcome: inactive
CG6216 (GeneID 39257) [DRSC10606] — raw ATP luminescence, replicate 1: 92413; raw ATP luminescence, replicate 2: 67533; outcome: inactive
RhoGEF64C (GeneID 38578) [DRSC08318] — raw ATP luminescence, replicate 1: 28487; raw ATP luminescence, replicate 2: 32960; outcome: inactive
RhoGEF64C (GeneID 38578) [DRSC08319] — raw ATP luminescence, replicate 1: 81813; raw ATP luminescence, replicate 2: 91527; outcome: inactive
Or83a (GeneID 40648) [DRSC12357] — raw ATP luminescence, replicate 1: 61470; raw ATP luminescence, replicate 2: 67173; outcome: inactive
CG3698 (GeneID 40298) [DRSC11749] — raw ATP luminescence, replicate 1: 27860; raw ATP luminescence, replicate 2: 32037; outcome: inactive
Kr-h2 (GeneID 33859) [DRSC03356] — raw ATP luminescence, replicate 1: 25173; raw ATP luminescence, replicate 2: 29167; outcome: inactive
pim (GeneID 34404) [DRSC03591] — raw ATP luminescence, replicate 1: 73907; raw ATP luminescence, replicate 2: 46170; outcome: inactive
CG2617 (GeneID 35331) [DRSC02712] — raw ATP luminescence, replicate 1: 62910; raw ATP luminescence, replicate 2: 67840; outcome: inactive
CG12948 (GeneID 41187) [DRSC14576] — raw ATP luminescence, replicate 1: 63273; raw ATP luminescence, replicate 2: 74360; outcome: inactive
CG17364 (GeneID 39543) [DRSC10269] — raw ATP luminescence, replicate 1: 53513; raw ATP luminescence, replicate 2: 55320; outcome: inactive
CG17364 (GeneID 39543) [DRSC10270] — raw ATP luminescence, replicate 1: 64193; raw ATP luminescence, replicate 2: 67590; outcome: inactive
CG13137 (GeneID 34349) [DRSC02234] — raw ATP luminescence, replicate 1: 46720; raw ATP luminescence, replicate 2: 57973; outcome: inactive
Acp26Ab (GeneID 33816) [DRSC01856] — raw ATP luminescence, replicate 1: 32543; raw ATP luminescence, replicate 2: 43300; outcome: inactive
Vps11 (GeneID 317987) [DRSC11909] — raw ATP luminescence, replicate 1: 62107; raw ATP luminescence, replicate 2: 51223; outcome: inactive
CG10029 (GeneID 40883) [DRSC12498] — raw ATP luminescence, replicate 1: 70757; raw ATP luminescence, replicate 2: 70390; outcome: inactive
